The subject of this experiment is P388 leukemia ip, CD2F1 mice, survival T/C. The experiment is described as follows: NCI In Vivo Anticancer Drug Screen. Data for tumor model P388 Leukemia (intraperitoneal) in CD2F1 (CDF1) mice. Particulars: T/C endpoint: median survival time, higher T/C = longer survival.
The mark [1] stands for this setting: dose: 200.0 mg/kg/injection, schedule: Q01DX009 (ip), vehicle: saline.
Setting [2] is: dose: 100.0 mg/kg/injection, schedule: Q01DX009 (ip), vehicle: saline with Tween-80.
The mark [3] stands for this setting: dose: 200.0 mg/kg/injection, schedule: Q01DX009 (ip), vehicle: saline with Tween-80.
[4] abbreviates: dose: 25.0 mg/kg/injection, schedule: Q01DX009 (ip), vehicle: saline with Tween-80.
[5] abbreviates: dose: 50.0 mg/kg/injection, schedule: Q01DX009 (ip), vehicle: saline with Tween-80.
Where [6] appears, read: dose: 240.0 mg/kg/injection, schedule: Q01DX005 (ip), vehicle: saline with Tween-80.
[7] abbreviates: dose: 100.0 mg/kg/injection, schedule: Q01DX005 (ip), vehicle: saline with Tween-80.
Setting [8] is: dose: 50.0 mg/kg/injection, schedule: Q01DX005 (ip), vehicle: saline with Tween-80.
[9] abbreviates: dose: 200.0 mg/kg/injection, schedule: Q01DX005 (ip), vehicle: saline with Tween-80.

The list is a part of this screen's results and no random one: it is rich in T/C values a quarter to a half above the control, in often repeated tests (any T/C) and in doses without a T/C. Further doses and runs are listed elsewhere. T/C is the treated group as % of the vehicle group. Some entries give survivors of the animals treated and no T/C: the source holds a T/C of zero for them, seemingly a mark for toxic or unscored doses. Some doses without a T/C left all or most animals alive at the check, yet need not have been tolerated: survival well below the control is almost never listed, so the zero probably covers shortened survival too. Counts of survivors are from the toxicity check (mostly the fifth day) where no day follows; animals may have died later. Schedules are NCI's codes, read here as Q, the interval in days (D) or hours (H), X, the number of doses. Some entries were tested several times; their values stand side by side, smallest first. For survival time, the PubChem record calls one and a half times the control and up active, and a quarter to a half above the control has no call in these data; cut-offs in other NCI protocols can differ. Some T/C values are followed by the survivors on the day toxicity was checked, most often the fifth; where none is given, no animal had died by that day.

For `CCCCC(CC)C(=O)[O][Pb]([CH2]CCC)([CH2]CCC)[CH2]CCC` (stereo not given), the survivor count is recorded as 0 of 6 (dose: 25.0 mg/kg/injection, schedule: Q04DX002 (ip), vehicle: saline with Tween-80); 0 of 6 (dose: 50.0 mg/kg/injection, schedule: Q04DX002 (ip), vehicle: saline with Tween-80); 0 of 6 (dose: 100.0 mg/kg/injection, schedule: Q04DX002 (ip), vehicle: saline with Tween-80); 0 of 6 (dose: 200.0 mg/kg/injection, schedule: Q04DX002 (ip), vehicle: saline with Tween-80); 0 of 6 (dose: 400.0 mg/kg/injection, schedule: Q04DX002 (ip), vehicle: saline with Tween-80).
As to `CCCCCCCCCCCCCCCCS(=O)CC(O)COC(=O)c1ccc(C(=O)OCC(O)CS(=O)CCCCCCCCCCCCCCCC)cc1` (stereo not given), the T/C is 129 % of control (dose: 200.0 mg/kg/injection, schedule: Q01DX009 (ip), vehicle: other) and 138 % of control (dose: 400.0 mg/kg/injection, schedule: Q01DX009 (ip), vehicle: other).
For `COc1cccc2c1C(=O)c1c(O)c3c(c(O)c1C2=O)C[C@@](O)(C(C)O)C[C@@H]3OC1CC(N)C(O)C(C)O1` (stereo not given in full), the T/C is 145 % of control (dose: 0.65 mg/kg/injection, schedule: Q01DX009 (ip), vehicle: saline); 145 % of control (dose: 5.0 mg/kg/injection, schedule: Q01DX001 (ip), vehicle: saline); 125 % of control (dose: 8.0 mg/kg/injection, schedule: Q01DX009 (ip), vehicle: saline); 145 % of control (dose: 13.3 mg/kg/injection, schedule: Q01DX001 (ip), vehicle: saline); 145 % of control (dose: 22.2 mg/kg/injection, schedule: Q04DX003 (ip), vehicle: saline). Besides, the survivor count (dose: 13.0 mg/kg/injection, schedule: Q01DX009 (ip), vehicle: saline) is reported as 6 of 6.
For the compound `O=C1c2cc3c(cc2C(=O)c2cc(-c4ccccc4)c(-c4ccccc4)cc21)OCO3`, the survivor count is, setting by setting: (dose: 60.0 mg/kg/injection, schedule: Q01DX005 (ip), vehicle: saline with Tween-80) 6 of 6; (dose: 120.0 mg/kg/injection, schedule: Q01DX005 (ip), vehicle: saline with Tween-80) 6 of 6.
Take `CN1[C@@H](CC(=O)c2ccccc2)CCC[C@H]1CC(=O)c1ccccc1`: the survivor count under setting [1] was 1 of 6.
For the compound `Nc1cn(C2OC(CO)C(O)C2O)c(=O)[nH]c1=O` (stereo not given), the survivor count under setting [2] is on record as 6 of 6 and the survivor count under setting [3] was 6 of 6.
In the case of `CCCC(=O)Oc1c(OC)cc(O)c2c(=O)c(O)c(-c3ccc(OC)cc3)oc12`, for the setting “dose: 28.0 mg/kg/injection, schedule: Q01DX005 (ip), vehicle: Klucel (hydroxypropylcellulose) (HPC)”, the survivor count is recorded as 6 of 6.
As for `CC(C)CCc1cc(O)c(CCC(C)C)cc1O`, the survivor count was 6 of 6 (dose: 12.5 mg/kg/injection, schedule: Q01DX009 (ip), vehicle: saline with Tween-80); 6 of 6 under setting [4]; 6 of 6 under setting [5]; 6 of 6 under setting [3].
On to `O=C(NC1CCOC1=O)c1ccc(N=C=S)cc1` (stereo not given), for which the survivor count reads like this: (dose: 200.0 mg/kg/injection, schedule: Q04DX003 (ip), vehicle: Klucel (hydroxypropylcellulose) (HPC)) 2 of 6; (dose: 400.0 mg/kg/injection, schedule: Q04DX003 (ip), vehicle: Klucel (hydroxypropylcellulose) (HPC)) 0 of 6.
On to `CN(C)c1c(Cl)c(=O)oc2c1ccc1nc(-c3ccccc3)ncc12`, for which, under setting [6], the survivor count was 6 of 6.
As for `O=C(C#Cc1ccccc1)c1ccccc1`, the T/C under setting [4] is 125 % of control. For the same compound, the survivor count is, setting by setting: under setting [5], 3 of 6; under setting [2], 0 of 6.
In the case of `CC(C)CCCCCCCCCCCCC(O)CC(=O)O` (stereo not given), under “dose: 70.0 mg/kg/injection, schedule: Q01DX005 (ip), vehicle: Klucel + Tween-80”, the survivor count is reported as 6 of 6.
Take `CS(=O)(=O)O/C=C1\C(=O)OC2CCCCC12` (stereo not given): the T/C (dose: 150.0 mg/kg/injection, schedule: Q01DX009 (ip), vehicle: distilled water + Tween-80) is 125 % of control and the T/C (dose: 300.0 mg/kg/injection, schedule: Q01DX009 (ip), vehicle: distilled water + Tween-80) is 125 % of control.
Consider `COC1CC(OC2CCC3(C)C(=CCC4C3C(OC(C)=O)C(OC(=O)CC(C)C)C3(C)C(C(C)=O)CCC43O)C2)OC(C)C1OC1CC(OC)C(OC2CC(OC)C(OC3OC(C)C(O)C(OC)C3O)C(C)O2)C(C)O1` (stereo not given), for which the survivor count (dose: 16.5 mg/kg/injection, schedule: Q01DX005 (ip), vehicle: Klucel (hydroxypropylcellulose) (HPC)) is recorded as 5 of 6 and the survivor count (dose: 33.0 mg/kg/injection, schedule: Q01DX005 (ip), vehicle: Klucel (hydroxypropylcellulose) (HPC)) is reported as 0 of 6.
Consider `Cn1c2c([N+](=O)[O-])cccc2c(=O)c2c(O)cc3c(c21)C=CC(C)(C)O3`, for which the survivor count (dose: 400.0 mg/kg/injection, schedule: Q01DX001 (ip), vehicle: saline with Tween-80) is 6 of 6.
On to `Cc1ccc(/C=C/C(=N/NC(=O)c2ccccc2)C(C)CN(C)C)cc1` (stereo not given), for which the survivor count (dose: 240.0 mg/kg/injection, schedule: Q01DX005 (ip), vehicle: saline) was 0 of 6.
For the compound `CC(C)(NCc1ccccc1)C(=O)OC(C)(C)C(=O)NCc1ccccc1`, the survivor count under setting [7] was 1 of 5.
For the compound `COc1ccccc1CNCCCCCCNCCSSCCNCCCCCCNCc1ccccc1OC`, the survivor count reads like this: (dose: 50.0 mg/kg/injection, schedule: Q04DX002 (ip), vehicle: suspension in saline) 4 of 6; (dose: 100.0 mg/kg/injection, schedule: Q04DX002 (ip), vehicle: saline) 0 of 6; (dose: 200.0 mg/kg/injection, schedule: Q04DX002 (ip), vehicle: saline) 0 of 6; (dose: 400.0 mg/kg/injection, schedule: Q04DX002 (ip), vehicle: saline) 0 of 6.
As for `CCn1nccc1N`, the survivor count runs as follows: under setting [8], 0 of 6; under setting [7], 0 of 6; under setting [9], 0 of 6.
For the compound `Nc1nc(-c2ccccn2)cc2cc(Cl)ccc12`, the survivor count under setting [6] was 0 of 6.
On to `O=C1[C@H]2CCC[C@H]2[C@H]2CCC[C@@H]12`, for which the T/C under setting [5] is 125 % of control. In addition, the survivor count (dose: 400.0 mg/kg/injection, schedule: Q01DX009 (ip), vehicle: saline with Tween-80) was 3 of 6.
`CCC[CH2][Sn]1([CH2]CCC)[O]C(=O)CCSCCC(=O)[O]1`: the T/C runs as follows: (dose: 6.25 mg/kg/injection, schedule: Q01DX005 (ip), vehicle: saline with Tween-80, evaluated on day 20) 126 % of control; (dose: 6.25 mg/kg/injection, schedule: Q01DX005 (ip), vehicle: saline with Tween-80, evaluated on day 35) 126 % of control. Moreover, the survivor count reads like this: (dose: 12.5 mg/kg/injection, schedule: Q01DX005 (ip), vehicle: saline with Tween-80) 0 of 6, 1 of 6, 2 of 6; under setting [8], 0 of 6; under setting [7], 0 of 6; under setting [9], 0 of 6.
In the case of `CCOC(=O)Nc1cc(Cl)c2nnn(C(=O)OCC)c2n1`, where the note is “dose: 25.0 mg/kg/injection, schedule: Q01DX009 (ip), vehicle: other”, the T/C was 127 % of control.
As for `CN1CCN(C(=O)N2c3ccccc3Sc3ccccc32)CC1`, under “dose: 50.0 mg/kg/injection, schedule: Q01DX009 (ip), vehicle: saline”, the T/C was 127 % of control. In addition, the survivor count by setting is: (dose: 100.0 mg/kg/injection, schedule: Q01DX009 (ip), vehicle: saline) 2 of 6; under setting [1], 0 of 6.
Regarding `CCCCCCCCCCCCCCCC(=O)O[C@@H]1[C@@H](C)[C@@]2(O)[C@@H](C=C(CO)C[C@]3(O)C(=O)C(C)=C[C@@H]23)[C@H]2[C@]1(OC(C)=O)[C@]2(C)CO`, the T/C is 135 % of control (dose: 0.25 mg/kg/injection, schedule: Q01DX005 (ip), vehicle: distilled water + Tween-80) and 130 % of control [4 of 6 alive] (dose: 0.5 mg/kg/injection, schedule: Q01DX005 (ip), vehicle: distilled water + Tween-80). Also, for the setting “dose: 1.0 mg/kg/injection, schedule: Q01DX005 (ip), vehicle: distilled water + Tween-80”, the survivor count is 0 of 6.

These data come from PubChem BioAssay AID330 (DTP/NCI, 2004).
